Data on 35 compounds can be found in PubChem BioAssay AID1487 (National Center for Advancing Translational Sciences (NCATS), 2009).

Some of the results follow. Further columns of the screen follow, without active or inactive calls. Most of these compounds were active or inconclusive in the main read-out, so they are no random draw. Potencies come from curve fits of mixed quality, noted in brackets.

A short description of the assay: qHTS Assay for Modulators of Lamin A Splicing. The conditions noted are these: HeLa LMNA splicing GFP/RFP minigene ratio, 48 h. Put shortly:
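S3 HeLa stable clones carrying a lamin A-EGFP splicing minigene plus DsRed2 were seeded at 600 cells/well in Opti-MEM with 2% FBS, pin-dosed and incubated 48 h at 37°C. Acumen cytometry (488 nm) gave the GFP/RFP total-intensity ratio.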
(In general: qHTS replaces the single test concentration by a dilution series.)

Setting [1] is: measured here: GFP splicing reporter channel.
[2] abbreviates: measured here: RFP viability control channel.

The term AC50 denotes the midpoint of the concentration-response curve, whichever way the signal moves. For the compound `Cc1noc(C)c1CSc1nnc(-c2cc(Cl)ccc2Cl)n1N`, the AC50 is, setting by setting: under setting [1], 11.2 µM [rising, single point]; under setting [2], 14.1 µM [rising, single point]. Turning to `OCC1OC(n2cnc3c(NCc4ccco4)ncnc32)C(O)C1O` (centres undefined), the AC50 under setting [1] is 3.98 µM [rising, full curve] and the AC50 under setting [2] is 2.51 µM [rising, full curve]. With `COc1ccccc1Oc1ccc(N/C=C/C(=O)c2ccco2)cc1`, the half-maximal activity concentration (AC50) was 0.891 µM [falling, full curve, poor fit] under setting [1] and 0.891 µM [falling, full curve, poor fit] under setting [2]. As for `O=C(NC1C=CS(=O)(=O)C1)c1sc2ccccc2c1Cl` (centres undefined), the AC50 under setting [1] is 35.5 µM [falling, single point].

Turning to `Cc1ccc(NC(=O)CSc2nnc(NC(=O)NC3CCCCC3)s2)cc1`, the AC50 under setting [1] is 0.224 µM [falling, partial curve, poor fit]. Same read-out and setting: to `CCc1cccc(N(CC(=O)NCc2ccc(F)cc2)C(=O)c2csnn2)c1` belongs 17.8 µM [falling, partial curve, poor fit].

Regarding `CN(C)c1ccc(C2=NOC(CN3C(=O)c4ccccc4S3(=O)=O)C2)cc1` (centres undefined), the AC50 under setting [2] is 17.8 µM [rising, single point]. Same read-out and setting: in the case of `Fc1cccc(F)c1/C=C/c1ccc2ccccc2n1` it was 0.447 µM [rising, partial curve, poor fit]. On to `COc1cc2c(cc1OC)C(COc1ccccc1OC)N(C(=O)c1ccc(S(=O)(=O)N(C)C)cc1)CC2` (centres undefined), for which the AC50 is, setting by setting: under setting [1], 7.94 µM [falling, full curve, poor fit]; under setting [2], 0.282 µM [falling, full curve, poor fit]. As for `NNC(=O)c1cccc(COc2ccccc2Br)c1`, the AC50 under setting [1] was 0.126 µM [falling, full curve] and the concentration at half-maximal activity (AC50) under setting [2] is 1.41 µM [falling, full curve]. Turning to `CCCCCn1c(CN(C)Cc2ccccc2)nc2c1c(=O)n(C)c(=O)n2C`, the AC50 is 12.6 µM [rising, single point] under setting [1] and 28.2 µM [rising, single point] under setting [2].

`CCC(=O)Nc1cccc(NC(=S)NC(=O)c2ccccc2)c1`: the AC50 under setting [2] is 11.2 µM [rising, single point]. On to `CN(Cc1ccco1)c1ncnc2ccc(-c3ccoc3)cc12`, for which the AC50 is, setting by setting: under setting [1], 20 µM [falling, partial curve, poor fit]; under setting [2], 14.1 µM [falling, partial curve, poor fit].

In the case of `CCCCN(CC)C(=O)CSc1nc2ccccc2c(=O)n1Cc1ccco1`, the AC50 under setting [2] is 10 µM [falling, partial curve].

With `Cc1ccc(N=N/C(=C\O)C(=O)c2ccncc2)cc1`, the AC50 under setting [2] was 15.8 µM [rising, single point]. As for `CC(NC(=O)Nc1nnc(C(F)(F)F)s1)(C(F)(F)F)C(F)(F)F`, the AC50 was 3.55 µM [rising, partial curve] under setting [1] and 2.51 µM [rising, full curve] under setting [2]. For the compound `Cc1cc(C)c(S(=O)(=O)c2c(C)cccc2C)c(OCC(C)C)n1`, under setting [2], the half-maximal activity concentration (AC50) was 12.6 µM [rising, partial curve, poor fit]. On to `Cc1ccc(N2C(=O)c3cccc(Oc4ccc(Cl)cc4)c3C2=O)c(C)c1`, for which the AC50 under setting [2] was 7.08 µM [rising, full curve, poor fit]. Consider `CCC(CC)NC(=O)c1n[nH]c(=O)c2ccccc12`, for which the AC50 under setting [1] was 0.00398 µM [rising, full curve, poor fit]. With `Cc1cccc(OCc2nnc(SCC(=O)N3c4ccccc4Sc4ccc(Cl)cc43)o2)c1`, the AC50 was 12.6 µM [rising, single point] under setting [1] and 17.8 µM [rising, single point] under setting [2]. As to `C/C(=N\OC(=O)NC1CCCCC1)c1sc(-c2ccccc2)nc1C`, the AC50 runs as follows: under setting [1], 7.94 µM [falling, partial curve]; under setting [2], 11.2 µM [falling, partial curve]. On to `COc1ccc(/C=C(/C(=O)NCc2ccccc2)c2ccccc2)cc1`, for which, under setting [2], the AC50 is 17.8 µM [rising, partial curve, poor fit]. Take `O=c1cc(CN2CCc3ccccc32)c2ccc(O)cc2o1`: the AC50 under setting [2] was 17.8 µM [rising, single point]. Turning to `COc1ccc(Nc2cc(C)c3cc(NC(=O)COc4cccc(C)c4)ccc3n2)cc1`, the AC50 under setting [1] was 3.98 µM [falling, single point]. In the case of `O=C(Nc1ccc(NC(=O)c2cccs2)cn1)c1ccco1`, under setting [2], the AC50 is 6.31 µM [falling, partial curve, poor fit]. For `Cc1cc(/C=C2/NC(=O)NC2=O)c(C)n1-c1sc2c(c1C#N)CCCC2`, the half-maximal activity concentration (AC50) is 5.62 µM [falling, single point] under setting [1] and 5.62 µM [falling, single point] under setting [2]. Consider `Cc1ccc(NC(=O)c2cc(NC(=O)c3ccco3)ccc2N2CCOCC2)cc1`, for which the AC50 under setting [2] was 10 µM [rising, single point]. With `C=CCNC(=S)N/N=C(\C)c1cccc(NC(C)=O)c1`, the concentration at half-maximal activity (AC50) reads like this: under setting [1], 0.0251 µM [falling, full curve]; under setting [2], 0.02 µM [falling, full curve].

As for `CCOC(=O)CC1ON(C)C(=O)N1c1ccc([N+](=O)[O-])cc1` (centres undefined), the AC50 by setting is: under setting [1], 0.00447 µM [falling, full curve, poor fit]; under setting [2], 0.00501 µM [falling, full curve, poor fit]. For `CC(C)(C)n1nnnc1C(c1cccs1)N(Cc1ccc(Cl)cc1)CC1CCCO1` (centres undefined), the AC50 under setting [2] was 14.1 µM [rising, partial curve].

Take `CCOc1ccc(C(=O)NCC(c2ccc3c(c2)OCO3)N2CCN(C)CC2)cc1` (centres undefined): the AC50 under setting [1] is 17.8 µM [falling, partial curve, poor fit].

`Cc1nn2c(C)c(C(=O)NCc3cccc(Br)c3)cnc2c1-c1ccccc1`: under setting [2], the AC50 was 0.0282 µM [falling, full curve, poor fit]. For the compound `O=S(=O)(c1ccc(F)cc1)N1CCN(Cc2ccccn2)CC1`, the AC50 under setting [1] is 0.2 µM [rising, full curve, poor fit]. For the compound `Cc1ccc(Nc2nc(CSc3nnnn3-c3ccccc3)cs2)cc1`, the AC50 reads like this: under setting [1], 6.31 µM [rising, partial curve]; under setting [2], 14.1 µM [rising, partial curve].

For the compound `Cc1cccc(Cn2c(SCC(=O)Nc3ccccc3)nc3c2c(=O)[nH]c(=O)n3C)c1`, the AC50 under setting [2] is 3.98 µM [rising, full curve, poor fit].
